Laboratory results from PubChem BioAssay AID540303 (National Center for Advancing Translational Sciences (NCATS), 2011).
In all, about 330,000 compounds went through this assay and about 1,000 (0.3%) were called active. The shares of active, inactive and inconclusive entries below differ from those in the screen. The call rests on the fitted dose curve; in most records, active means well fitted inhibition curve with a large enough effect; inconclusive means small, poorly fitted or top-dose-only effect; inactive means no such curve, though single readings can be large or run the other way; tested in mouse RAW 264.7 cells. Potencies beside an inconclusive call are fits to weak or partial responses and may not hold up.

Assay: qHTS for Inhibitors of Cell Surface uPA Generation; further: nearly all actives have a fitted effect of over 55% in size
Conditions: cell surface uPA generation assay; series mostly up to 38.3 µM
In short: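 ATP-Lite luminescence in RAW 264.7 cells after 24 h of exposure to compound, tested up to 38.3 uM final in 1:5 steps. Raised ATP reflects inhibition of uPA-dependent LF delivery to the cytoplasm.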
Potency means the concentration at half of the fitted maximal effect.

| SMILES | Potency |
| --- | --- |
| O=C(O)c1ccccc1NC(=O)c1ccccc1Nc1ccccc1 | inconclusive: 2.82 µM [inhibitor, single point] |
| CCOC(=O)c1nn(-c2ccc3c(c2)CCN3C(C)=O)cc1O | inconclusive: 8.91 µM [inhibitor, partial curve] |
| Cc1ccc(SCCC(=O)N/N=C/c2cccnc2)cc1 | inconclusive: 12.6 µM [inhibitor, single point] |
| CCOC(=O)c1c(C(C)(C)C)oc2ccc(O)cc12 | inactive |
| CCCC(=O)Nc1nc2ccc(NC(=O)c3cccnc3)cc2s1 | inconclusive: 11.2 µM [inhibitor, partial curve] |
| COc1ccccc1-c1cc(C(=O)N/N=C\c2cnn(C)c2C)c2ccccc2n1 | inactive |
| Cc1ccc(OCC(=O)Nc2sc3c(c2C#N)CC(C)(C)NC3(C)C)cc1 | inactive |
| O=c1cc(-c2ccccc2)oc2cc(O)ccc12 | inconclusive: 11.2 µM [inhibitor, single point] |
| COc1ccc(N2CCN(C(=O)CSc3nnc4c(C)cc5ccccc5n34)CC2)cc1 | inactive |
| COc1cc(CN2CCN(C(=O)c3ccc(-c4ccccc4)cc3)CC2)cc(OC)c1OC | inactive |
| COc1ccc(CNC(=O)Cn2cnc3c(NCc4ccccc4)ncnc32)cc1 | inconclusive: 11.2 µM [inhibitor, partial curve] |
| CCOc1ccc(-c2nc(CCl)cs2)cc1 | inconclusive: 2.51 µM [inhibitor, full curve, poor fit] |
| COc1ccc(-c2nc(SCC(=O)Nc3nccs3)c(-c3ccc(Cl)cc3)[nH]2)cc1 | inconclusive: 8.91 µM [inhibitor, single point] |
| CC1CCN(CCOCCOc2ccc(Br)cc2Cl)CC1 | inconclusive: 11.2 µM [inhibitor, single point] |
| COc1ccccc1NS(=O)(=O)c1cc(NC(=O)CN2C(=O)NC3(CCCCC3)C2=O)ccc1C | inconclusive: 2.82 µM [inhibitor, partial curve, poor fit] |
| O=C(NCc1ccncc1)c1ccc(N2CCCC2)c([N+](=O)[O-])c1 | inactive |
| COc1ccc2oc(-c3ccccc3)c(C(=O)N(C)C)c2c1 | inactive |
| CN1C=CC(=O)[C@@H](OC(=O)Nc2ccc(Br)cc2)[C@H]1c1ccccc1Br | inconclusive: 4.47 µM [inhibitor, partial curve, poor fit] |
| O=C(Nc1nnc(SCc2ccc(F)cc2)s1)c1cccnc1Cl | inactive |
| CC(C)c1nnc(NC(=O)c2nc(S(=O)(=O)Cc3ccccc3F)ncc2Cl)s1 | inconclusive: 12.6 µM [inhibitor, single point] |
| COc1ccc(C2C=C(c3ccc(C)c(C)c3)Nc3ncnn32)c(OC)c1OC (stereo unspecified) | inconclusive: 8.91 µM [inhibitor, partial curve, poor fit] |
| CCOc1ccccc1/C=N/Nc1ccccc1[N+](=O)[O-] | inactive |
| COc1cc(NC(=O)c2ccc3c(c2)OCO3)ccc1NC(=O)C(C)C | inactive |
| O=C(CSc1nc2cc(Cl)c(Cl)cc2[nH]1)c1ccc2c(c1)OCO2 | inactive |

Structural class, those above containing an NH in an aromatic ring (two)

| SMILES | Potency |
| --- | --- |
| COc1ccc(-c2nc(SCC(=O)Nc3nccs3)c(-c3ccc(Cl)cc3)[nH]2)cc1 | inconclusive: 8.91 µM [inhibitor, single point] |
| O=C(CSc1nc2cc(Cl)c(Cl)cc2[nH]1)c1ccc2c(c1)OCO2 | inactive |

Next entries:

| SMILES | Potency |
| --- | --- |
| CC(C)[C@H](NC(=O)OC(C)(C)C)c1nnc(S(=O)(=O)Cc2c(F)cccc2Cl)o1 | inconclusive: 8.91 µM [inhibitor, single point] |
| CN1CCCC1CCNc1ccc2oc3ccccc3c(=O)c2c1 (stereo unspecified) | inconclusive: 11.2 µM [inhibitor, partial curve, poor fit] |
| O=C(CN1C(=O)NC2(CCCCCCC2)C1=O)Nc1ccc(Br)cc1 | inconclusive: 11.2 µM [inhibitor, single point] |
| COC(=O)[C@H](CCSC)NC(=O)Cn1cnc(C(=O)Nc2ccc(C)c(C)c2)n1 | active: 10 µM |
| Cc1cc(/C=N/n2c(COc3ccccc3C)nc3ccccc3c2=O)c(O)c([N+](=O)[O-])c1 | inconclusive: 11.2 µM [inhibitor, single point] |
| COC(=O)c1cc(NCc2ccc3c(c2)OCO3)ccc1N1CCOCC1 | inactive |
| CCN1/C(=C/c2ccc3cc(C)ccc3[n+]2CC)Sc2ccccc21 | inconclusive: 1.58 µM [inhibitor, full curve, poor fit] |
| CC(C)(C)OC(=O)CNC(=O)c1[nH]cnc1C(=O)NCC(=O)OCc1ccccc1 | inactive |
| O=C(Nc1ccc2oc(-c3ccccc3)nc2c1)c1ccco1 | inconclusive: 11.2 µM [inhibitor, single point] |
| COc1ccc(N(C(=O)C(C)C)S(=O)(=O)c2ccc3ccccc3c2)cc1 | active: 1.78 µM |
| O=C1NC(=S)N/C1=C/c1ccc2c(c1)OCO2 | inconclusive: 3.55 µM [inhibitor, partial curve, poor fit] |
| CCC(CO)Nc1ccc(-c2nn(C)c(=O)c3ccccc23)cc1[N+](=O)[O-] (stereo unspecified) | inconclusive: 0.501 µM [inhibitor, full curve, poor fit] |
| COc1ccc(CN(C)C(=O)CCc2ccc(S(=O)(=O)N3CCCCCC3)cc2)c(OC)c1 | inconclusive: 2.51 µM [inhibitor, full curve, poor fit] |
| CC(NC(=O)c1ccc(-c2ccccc2)cc1)C(c1ccccc1)N1CCOCC1 (stereo unspecified) | inconclusive: 5.01 µM [inhibitor, single point] |
| Cc1nn(-c2ccccc2)c(Cl)c1/C=N/NC(=O)c1[nH]ncc1Br | inconclusive: 1.12 µM [inhibitor, single point] |
| Cn1cc(CN2CCC(C(=O)Nc3cccc(-c4cccc(F)c4)c3)CC2)cn1 | inconclusive: 28.2 µM [inhibitor, single point] |
| CCc1ccc(OCC2c3cc(OC)c(OC)cc3CCN2C(=S)NCCOC)cc1 (stereo unspecified) | inactive |
| COC(=O)c1nc2ccc(C)cn2c1F | inconclusive: 10 µM [inhibitor, single point] |
| CCOc1cc2c(cc1O)CCC1C2CCC2(C)C(O)CCC12 (stereo unspecified) | inactive |
| C(=N\Nc1nc(N2CCCCC2)nc(N2CCCCC2)n1)/c1c[nH]c2ccccc12 | inconclusive: 14.1 µM [inhibitor, partial curve, poor fit] |
| CC1S/C(=N/N=C/c2ccco2)N(Cc2ccc(F)cc2)C1=O (stereo unspecified) | inconclusive: 7.08 µM [inhibitor, partial curve, poor fit] |
| CCn1c(C)c(C)c2cc(C(=O)N3CCCC3)ccc21 | inactive |
| CCNc1nc(NCC)n2c(SCC(=O)Nc3cccc(Cl)c3)nnc2n1 | inactive |
| C=CCC1(CC=C)CCCN1C(=O)c1cc(COc2cccc(C(F)(F)F)c2)on1 | inconclusive: 3.55 µM [inhibitor, partial curve, poor fit] |

| SMILES | Potency |
| --- | --- |
| CCn1c(SCC(=O)N/N=C/c2cccs2)nc2ccccc21 | inconclusive: 15.8 µM [inhibitor, partial curve, poor fit] |
| Nc1nc(-c2ccc(Oc3ccccc3)cc2)c(CC(=O)O)s1 | inactive |
| CCN(CC)C(=O)C1CCN(c2ncnc3c2cnn3-c2ccc(C)cc2C)CC1 | inactive |
| O=C(Nc1ccc2c(c1)OCO2)c1cc(C2CC2)on1 | inconclusive: 3.98 µM [inhibitor, partial curve] |
| Cc1ccc(NC(=O)c2cc(Cl)ccc2[N+](=O)[O-])cc1C | inactive |
| Oc1cc(-c2ccncc2)cc2cccnc12 | inconclusive: 8.91 µM [inhibitor, single point] |
| Cc1ccc(C(=O)NCC(=O)NCC(c2cccs2)N2CCOCC2)cc1 (stereo unspecified) | inconclusive: 1.41 µM [inhibitor, partial curve, poor fit] |
| Cc1cc(O)ccc1N/C=C/c1onc(C)c1[N+](=O)[O-] | inactive |
| CCOc1ccc(C2=Nn3c(CC)nnc3SC2)cc1 | inconclusive: 10 µM [inhibitor, partial curve, poor fit] |
| CCN(Cc1ccncc1)Cc1c(O)ccc2ccccc12 | inactive |
| N/C(=N\OC(=O)CSc1ccccc1)c1ccc([N+](=O)[O-])cc1 | inconclusive: 5.01 µM [inhibitor, partial curve, poor fit] |
| Cc1nn2c(CN(C(=O)COc3ccccc3)c3ccccc3)nnc2c2ccccc12 | inactive |
| NC(=O)[C@@H]1CC2(CC(c3cccc(NC(=O)COc4ccc(Cl)cc4)c3)=NO2)CN1C(=O)COc1ccc(Cl)cc1 (stereo partly specified) | inconclusive: 28.2 µM [inhibitor, single point] |
| O=C1[C@@H](Oc2ccccc2)[C@@H](c2ccncc2)N1c1ccncc1 | inconclusive: 3.55 µM [inhibitor, partial curve, poor fit] |
| C[C@H](NC(=O)c1nc[nH]c1C(=O)N[C@@H](CCCCNC(=O)OC(C)(C)C)C(=O)OC(C)(C)C)c1ccccc1 | inconclusive: 28.2 µM [inhibitor, single point] |
| Nc1c(C(=O)O)sc2nc3c(cc12)CCCC3 | inactive |
| CCOC(=O)c1c2c(n(C)c1C)C(=O)C(=O)c1ccc(Br)cc1-2 | inactive |
| O=C(NCc1ccc(OC(F)(F)F)cc1)c1ccc2c(c1)S(=O)(=O)c1ccccc1C2=O | inactive |
| O=C(NNC(=S)Nc1ccc(Cl)c(Cl)c1)c1ccccn1 | inconclusive: 10 µM [inhibitor, single point] |
| Cc1noc2ncnc(Oc3ccc4ccccc4c3)c12 | inactive |
| COc1ccccc1C(=O)NNC(=O)c1cccc(O)c1 | inconclusive: 10 µM [inhibitor, partial curve, poor fit] |
| O=C(NCCC1=CCCCC1)c1ccc(-n2cncn2)cc1 | inconclusive: 5.62 µM [inhibitor, full curve, poor fit] |
| CCOC(=O)c1c(C)[nH]c(N=Nc2ccc(C)cc2)c1C | inactive |
